Test results: PMC9326099, “Odorant Receptor PxylOR11 Mediates Repellency of Plutella xylostella to Aromatic Volatiles” (Frontiers in Physiology, 2022)

Tested on: T1, PxylOR11/PxylOrco
T1 construct: full-length ORF, PxylOR11 413 residues, in pT7Ts; cRNA co-injected with PxylOrco cRNA in Xenopus oocytes; heteromer; with Odorant receptor coreceptor
Assay: two-electrode voltage clamp, Xenopus oocytes
Assay type: cell-based, Plutella xylostella
Conditions: agonist, 10^-4 M in Ringer's buffer pH 7.6, holding potential -80 mV

Row | SMILES | mean inward current at 10^-4 M (n = 7) [nA] | mean inward current at 10^-4 M (n = 6) [nA]
1 | OCc1ccccc1 [benzyl alcohol] | 975 | 
2 | O=CCc1ccccc1 [phenylacetaldehyde] |  | 582
3 | O=Cc1ccccc1O [salicylaldehyde] |  | 565
